Reference: patent US20160084820A1, “METHODS OF TREATING OR PREVENTING PERIODONTITIS AND DISEASES ASSOCIATED WITH PERIODONTITIS” (priority 2010, published 2016)
At least one compound was matched to its structure with a doubt left.

System: IL-12p70 production
Assay: IL-12p70 induction in IFN-gamma-primed macrophages, ELISA
Format: cell-based, mouse
Details: C5aRA 1 μM, U0126 10 μM, wortmannin 100 nM
Procedure: Induction of nitric oxide production was assessed by measuring the amount of NO2− (stable metabolite of nitric oxide) in stimulated culture supernatants using a Griess reaction-based assay kit (R&D Systems), as previously performed (Hajishengallis et al., 2008, PNAS USA, 105:13532-7). Levels of cAMP in activated cell extracts were measured using a cAMP enzyme immunoassay kit (Cayman Chemical) (Liang et al., 2007, J. Immunol., 178:4811-9). C5a-induced intracellular calcium mobilization was monitored in cells (4×10^6) loaded with 1 μM Indo 1-AM in the presence of 1 μM pluronic acid, as previously described (Ali et al., 1993, J. Biol. Chem., 268:24247-54). Calcium traces were recorded in a Perkin-Elmer fluorescence spectrometer (Model 650-19) with an excitation wavelength of 355 nm and an emission wavelength of 405 nm. Induction of cytokine production in activated cell culture supernatants or in the peritoneal fluid of infected mice was determined by ELISA using kits from eBioscience or Cell Sciences. C5a levels were measured by sandwich ELISA, employing a pair of capture and biotinylated anti-05a mAbs (BD Pharmingen), according to the manufacturer's protocol.
Whether C5a inhibits P. gingivalis-induced IL-12p70 in peritoneal macrophages was investigated. […]

SMILES: COC[C@H]1OC(=O)c2coc3c2[C@@]1(C)C1=C(C3=O)[C@@H]2CCC(=O)[C@@]2(C)C[C@H]1OC(C)=O [wortmannin]
- P. gingivalis-induced IL-12p70 without exogenous C5a: failed to regulate
- reversal of C5a inhibition of P. gingivalis- or LPS-induced IL-12p70 (C5a 50 nM): not
